Results on one substance are retold here after PMC9098524, “Structural basis of ion – substrate coupling in the Na^+-dependent dicarboxylate transporter VcINDY” (Nature Communications, 2022).

In the test the target is Na+-dependent dicarboxylate transporter from Vibrio cholerae (VcINDY) (Vibrio cholerae) (UniProt Q9KNE0). Description: cryo-EM structure; both purified.

No constants are given. Whether binding was seen depends on the method and setting. Some entries that bind do so weakly or less than the wild type.

Turning to “Na+-dependent dicarboxylate transporter from Vibrio cholerae (VcINDY) (from UniProt Q9KNE0)”, the binding entry is recorded as “binds”.
